Experimental findings from PubChem BioAssay AID180 (DTP/NCI, 2004) are described below.

The list is a part of this screen's results and no random one: it is rich in T/C values a quarter to a half above the control, in often repeated tests (any T/C) and in doses without a T/C. Further doses and runs are listed elsewhere. T/C is the treated group as % of the vehicle group. Schedule codes are those of the source, read here as Q, the interval in days (D) or hours (H), X, the number of doses. Some T/C values carry the count of animals alive at the toxicity check (mostly the fifth day); without a count, all were alive then. Some entries were tested several times; the values are given in rising order. Some doses have a count of surviving animals in place of a T/C: the source holds a T/C of zero for them, seemingly a mark for toxic or unscored doses. Counts of survivors are from the toxicity check (mostly the fifth day) where no day follows; animals may have died later. Some schedule codes hold Z or #, which are not explained here.

The assay has as its system BDF1 mice, Adenocarcinoma 755 s.c., tumor weight T/C. Description: NCI In Vivo Anticancer Drug Screen. Data for tumor model Adenocarcinoma 755 (subcutaneous) in B6D2F1 (BDF1) mice. Particulars: T/C endpoint: mean tumor weight, higher T/C = larger tumour; for T/C: evaluated on day 12. In outline:
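Readout: T/C, i.e. treated-group measurement over vehicle-control measurement. Endpoint is survival or tumor size in tumor-bearing mice given compound.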

Setting [1] is: dose: 240.0 mg/kg/injection, schedule: Q01DX011 (ip), vehicle: carboxymethylcellulose (CMC).
[2] abbreviates: dose: 100.0 mg/kg/injection, schedule: Q01DX011 (sc), vehicle: steroid suspending solution.
The mark [3] stands for this setting: dose: 25.75 mg/kg/injection, schedule: Q01DX011 (sc), vehicle: steroid suspending solution.
[4] abbreviates: dose: 51.5 mg/kg/injection, schedule: Q01DX011 (sc), vehicle: steroid suspending solution.
Where [5] appears, read: dose: 400.0 mg/kg/injection, schedule: Q01DX011 (sc), vehicle: steroid suspending solution.
Setting [6] is: dose: 100.0 mg/kg/injection, schedule: Q01DX011 (ip), vehicle: other.
Setting [7] is: dose: 200.0 mg/kg/injection, schedule: Q01DX011 (ip), vehicle: other.
Setting [8] is: dose: 400.0 mg/kg/injection, schedule: Q01DX011 (ip), vehicle: other.
[9] abbreviates: dose: 800.0 mg/kg/injection, schedule: Q01DX011 (ip), vehicle: other.

For the compound `Nc1nc2c(nc(Br)n2C2OC(CO)C(O)C2O)c(=O)[nH]1` (stereo not drawn), under setting [1], the survivor count is 5 of 10.
On to `CCOCCNc1ncnc2c1cnn2C`, for which, where the note is “dose: 100.0 mg/kg/injection, schedule: Q01DX011 (ip), vehicle: methylcellulose (MC)”, the survivor count is given as 4 of 10.
For the compound `[N-]=[N+]=C1C(=O)NC(=O)N2C3CC(O)C(COC12)O3` (stereo not drawn), where the note is “dose: 600.0 mg/kg/injection, schedule: Q01DX011 (ip), vehicle: carboxymethylcellulose (CMC)”, the survivor count is 0 of 10.
Take `COc1ccc2c(c1)CCC(c1ccccc1)=C2c1ccc(OCCN2CCCC2)cc1`: the survivor count is listed as 0 of 10 (dose: 50.0 mg/kg/injection, schedule: Q01DX011 (sc), vehicle: steroid suspending solution) and 0 of 10 under setting [2].
For `CC/C(=C(/CC)c1ccc(O)cc1)c1ccc(O)cc1`, the T/C was 47 [7 of 10 alive], 61 [8 of 10 alive], 71 [8 of 10 alive], 72, 76 % of control (dose: 12.87 mg/kg/injection, schedule: Q01DX011 (sc), vehicle: steroid suspending solution); 55, 59, 74 % of control [7 of 10 alive] under setting [3]; 40 [7 of 10 alive], 46, 52, 90 % of control [9 of 10 alive] under setting [4]. For the same compound, the survivor count reads like this: (dose: 25.73 mg/kg/injection, schedule: Q01DX011 (sc), vehicle: steroid suspending solution) 3 of 10; under setting [3], 4 of 10; under setting [4], 2 of 10; under setting [5], 1 of 10; (dose: 500.0 mg/kg/injection, schedule: Q01DX011 (sc), vehicle: steroid suspending solution) 5 of 10.
On to `O=S1(=O)CCCO1`, for which the survivor count (dose: 160.0 mg/kg/injection, schedule: Q01DX011 (ip), vehicle: carboxymethylcellulose (CMC)) is 1 of 10.
In the case of `CC(=O)Nc1c(Cl)cc2c(c1Cl)Cc1cc([N+](=O)[O-])ccc1-2`, the survivor count was 2 of 10 (dose: 50.0 mg/kg/injection, schedule: Q01DX011 (ip), vehicle: other); 3 of 10 under setting [6]; 2 of 10 under setting [7]; 7 of 12 (dose: 250.0 mg/kg/injection, schedule: Q01DX011 (ip), vehicle: carboxymethylcellulose (CMC)); 6 of 12 (dose: 350.0 mg/kg/injection, schedule: Q01DX011 (ip), vehicle: carboxymethylcellulose (CMC)); 0 of 10 and 4 of 10 under setting [8]. Besides, the survivor count under setting [9] is 0 of 10.
On to `C[C@]12CCCC[C@@H]1CC[C@@H]1[C@@H]2[C@@](C)(O)C[C@@]2(C)[C@H]1CC[C@]2(C)O`, for which the T/C reads like this: (dose: 10.0 mg/kg/injection, schedule: Q01DX011 (sc), vehicle: steroid suspending solution) 132 % of control; under setting [2], 128 % of control.
For the compound `O=C1NC(=O)C(c2ccccc2)(c2ccc(Cl)cc2Cl)N1` (stereo not drawn), where the note is “dose: 224.0 mg/kg/injection, schedule: Q01DX011 (ip), vehicle: carboxymethylcellulose (CMC)”, the survivor count is 6 of 10.
`Cc1ccc(CSc2ncnc3nc[nH]c23)cc1C`: where the note is “dose: 75.0 mg/kg/injection, schedule: Q01DX011 (ip), vehicle: methylcellulose (MC)”, the survivor count is on record as 6 of 10.
Consider `CC(NC(=O)C(Cl)Cl)C(=O)O` (stereo not drawn), for which the survivor count (dose: 1000.0 mg/kg/injection, schedule: Q01DX011 (ip), vehicle: methylcellulose (MC)) was 2 of 10.
Regarding `O=C(CCCl)N1CCN(C(=O)CCCl)CC1`, the survivor count is 3 of 10 (dose: 263.0 mg/kg/injection, schedule: Q01DX011 (ip), vehicle: methylcellulose (MC)); 1 of 10 and 4 of 10 (dose: 350.0 mg/kg/injection, schedule: Q01DX011 (ip), vehicle: methylcellulose (MC)).
Turning to `c1ccc(CSc2ncnc3nc[nH]c23)cc1`, the survivor count reads like this: (dose: 12.0 mg/kg/injection, schedule: Q01DX011 (ip), vehicle: alkali diluted with saline) 6 of 10; (dose: 100.0 mg/kg/injection, schedule: Q01DX006 (iv), vehicle: carboxymethylcellulose (CMC)) 0 of 10; (dose: 200.0 mg/kg/injection, schedule: Q01DX006 (iv), vehicle: carboxymethylcellulose (CMC)) 0 of 10; under setting [5], 6 of 10; (dose: 800.0 mg/kg/injection, schedule: Q01DX011 (oral), vehicle: carboxymethylcellulose (CMC)) 0 of 10. Where the note is “dose: 25.0 mg/kg/injection, schedule: Q01DX011 (ip), vehicle: carboxymethylcellulose (CMC)”, the T/C was 5 % of control.
`Cn1cnc2c(ncn2C2OC(CO)C(O)C2O)c1=N` (stereo not drawn): for the setting “dose: 600.0 mg/kg/injection, schedule: Q01DX011 (ip), vehicle: saline”, the survivor count is listed as 6 of 10.
In the case of `O=CNC(Cc1cccc(N(CCCl)CCCl)c1)C(=O)O` (stereo not drawn), the survivor count runs as follows: (dose: 9.0 mg/kg/injection, schedule: Q01DX011 (ip), vehicle: methylcellulose (MC)) 6 of 10; (dose: 18.0 mg/kg/injection, schedule: Q01DX011 (ip), vehicle: methylcellulose (MC)) 3 of 10.
For `Cc1cc(C)c(/C=N/Nc2nc3c(c(=O)n(C)c(=O)n3C)n2C)c(C)c1`, the survivor count reads like this: (dose: 120.0 mg/kg/injection, schedule: Q01DX011 (ip), vehicle: carboxymethylcellulose (CMC)) 6 of 10; under setting [1], 3 of 10.
Regarding `CCCC(=O)OCC1OC(n2cnc3c(=S)nc[nH]c32)C(OC(=O)CCC)C1OC(=O)CCC` (stereo not drawn), the survivor count is 0 of 10 under setting [6], 0 of 10 under setting [7], 0 of 10 under setting [8] and 0 of 10 under setting [9].
As to `CSc1ncnc2nc[nH]c12`, the survivor count by setting is: (dose: 1.0 mg/kg/injection, schedule: Q01DX011 (oral), vehicle: carboxymethylcellulose (CMC)) 5 of 10; (dose: 15.0 mg/kg/injection, schedule: Q01DX011 (oral), vehicle: carboxymethylcellulose (CMC)) 4 of 10; (dose: 25.0 mg/kg/injection, schedule: Q01DX011 (oral), vehicle: carboxymethylcellulose (CMC)) 6 of 10; (dose: 100.0 mg/kg/injection, schedule: Q#A X022 (ip), vehicle: carboxymethylcellulose (CMC)) 4 of 10; (dose: 300.0 mg/kg/injection, schedule: Q03DX004 (ip), vehicle: carboxymethylcellulose (CMC)) 3 of 10; (dose: 500.0 mg/kg/injection, schedule: Q01DX001 (ip), vehicle: carboxymethylcellulose (CMC)) 3 of 10 and 4 of 10. Moreover, the survivor count (dose: 1000.0 mg/kg/injection, schedule: Q01DX001 (ip), vehicle: carboxymethylcellulose (CMC)) is recorded as 4 of 10.
Take `Nc1nc(SCc2ccccc2)c2ncn(C3OC(CO)C(O)C3O)c2n1` (stereo not drawn): under “dose: 150.0 mg/kg/injection, schedule: Q01DX011 (ip), vehicle: methylcellulose (MC)”, the survivor count is 5 of 10.
For the compound `Cc1ccc2c(c1)Sc1ccc3ccccc3c1N2`, the survivor count was 0 of 10 (dose: 168.0 mg/kg/injection, schedule: Q01DX011 (ip), vehicle: carboxymethylcellulose (CMC)); 4 of 10 (dose: 250.0 mg/kg/injection, schedule: Q01DX011 (ip), vehicle: saline); 2 of 12 (dose: 335.0 mg/kg/injection, schedule: Q01DX011 (ip), vehicle: carboxymethylcellulose (CMC)); 5 of 10 and 6 of 11 (dose: 670.0 mg/kg/injection, schedule: Q01DX011 (ip), vehicle: carboxymethylcellulose (CMC)).
Turning to `CC(=O)O[C@]1(C(C)=O)CC[C@H]2[C@@H]3C[C@H](C)C4=CC(=O)CC[C@]4(C)[C@H]3CC[C@@]21C`, the T/C (dose: 25.0 mg/kg/injection, schedule: Q01DX011 (sc), vehicle: steroid suspending solution) was 127 % of control.
On to `Nc1nc2c(ccn2Cc2ccccc2)c(=O)[nH]1`, for which the T/C by setting is: (dose: 60.0 mg/kg/injection, schedule: Q01DX011 (ip), vehicle: carboxymethylcellulose (CMC)) 125 % of control; under setting [1], 130 % of control.
